The values that follow come from patent US20020004519A1, “METHOD FOR REDUCING CHLORIDE SECETION BY INTESTINAL EPITHLIAL CELLS IN SITU” (priority 1998, published 2002).

Read-outs that look alike come from different tables or passages of the source.

Usually IC50 stands for the point on the concentration scale where inhibition reaches its midpoint.

This test relates to T84 cells. The test can be described thus: Electrogenic Cl- secretion (short circuit current, Isc) in confluent T84 monolayers. The class given is cell-based. The note with it: Homo sapiens.

With `Clc1ccccc1C(c1ccccc1)(c1ccccc1)n1ccnc1` [clotrimazole], the IC50 stood at 10 µM (T84, read-out: IC50 for inhibiting the secretory response to cholera toxin); 8 µM (T84, VIP-stimulated monolayers, read-out: IC50 for inhibiting the secretory response to cAMP); 3 µM (T84, carbachol 100 μM, monolayers initially stimulated with VIP, read-out: IC50 for inhibiting the secretory response to carbachol).
